Measured values: PubChem BioAssay AID1347076 (National Center for Advancing Translational Sciences (NCATS), 2019)
Among all 400,000 compounds or so, about 13,000 (3.2%) were called active. Inconclusive results, whose numbers are uncertain, are shown with a selection of clear calls. Calls come from the whole dose curve; as a rule, active = well fitted cell-killing curve with a large enough effect; inconclusive = small, poorly fitted or top-dose-only effect, or effect the other way; inactive = flat fitted curve, though single readings scatter. Where the call is inconclusive, the potency comes from a doubtful curve fit.

Experiment: qHTS assay for MDR1-selective chemotherapeutics: Primary screen using the drug-selected MDR subline cells KB-V1; note: nearly all actives have a fitted effect of over 60% in size
Conditions: KB-V1 MDR cells viability, CellTiter-Glo, 72 h; activity change, negative = cytotoxicity: at 46.1 µM (top of the series)
Summary of the method: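 KB-V1, DMEM (no phenol red) + 10% FBS; cpd pin-transferred, titration series; 72 h, 37 degrees C; CellTiter-Glo, luminescence. Data normalized, curve-fit.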
% is set by controls: 0 for no effect and ±100 for the full control effect; potency is the fitted concentration of half-maximal effect.

Question: With CN(C)S(=O)(=O)c1cccc(C(=O)Nc2cc(Cl)cc(Cl)c2)c1 as the compound, how does the Potency read?
Answer: Its Potency is inconclusive: 20.6 µM [cytotoxic, single point].

Question: Which Potency does the source give for O=C(c1ccc(Cl)c(S(=O)(=O)N2CCOCC2)c1)N1CCN(Cc2ccccc2)CC1 here?
Answer: The Potency was inconclusive: 1.03 µM [cytotoxic, full curve].

Question: With COc1ccc(/C=C2\SC(=Nc3ccccc3Cl)NC2=O)c(OC)c1 as the compound, how does the Potency read?
Answer: The Potency was inconclusive: 23.1 µM [cytotoxic, partial curve, poor fit].

Question: With CCOC(=O)C1(CCCc2ccccc2)CCN(CC(O)CO)CC1 (centres undefined) as the compound, how does the Potency read?
Answer: Its Potency is inconclusive: 29.1 µM [cytotoxic, single point].

Question: With COC(=O)c1cccc(NC(=O)c2ccco2)c1 as the compound, how does the Potency read?
Answer: Its Potency is “inactive”.

Question: For CC1=NN(c2ccccc2)C(=O)/C1=C/N(C)C, which Potency is on record?
Answer: The Potency was “inactive”.

Question: Which Potency does the source give for CCOC(=O)N1CCC(Nc2ncnc3c2cnn3-c2ccc(Cl)cc2)CC1 here?
Answer: The Potency was inconclusive: 1.16 µM [cytotoxic, full curve].

Question: With COc1ccc(S(=O)(=O)N2CCN(CC3CC=CCC3)CC2)cc1 (centres undefined) as the compound, how does the Potency read?
Answer: The Potency was inconclusive: 9.2 µM [cytotoxic, partial curve].

Question: For Cc1cccc(N2CCN(C(=O)c3ccc(CNc4c(N5CCC(C)CC5)c(=O)c4=O)cc3)CC2C)c1 (centres undefined), which Potency is on record?
Answer: The Potency was inconclusive: 20.6 µM [rising, single point].

Question: With COc1ccc(NC(=O)c2[nH]nc3c2CSc2ccccc2-3)c(OC)c1 as the compound, how does the Potency read?
Answer: Its Potency is inconclusive: 25.9 µM [rising, single point].

Question: For COc1ccccc1C(=O)/C=C/c1ccc(N2CCCCC2)c([N+](=O)[O-])c1, which Potency is on record?
Answer: The Potency was active: 10.3 µM.

Question: For Cc1onc(-c2c(F)cccc2Cl)c1C(=O)N(Cc1ccccc1)C(C)C, which Potency is on record?
Answer: The Potency was inconclusive: 23.1 µM [cytotoxic, single point].

Question: Which Potency does the source give for Cc1cc(C)cc(-n2ccnc2SCC(=O)Nc2ccc(C)c(Cl)c2)c1 here?
Answer: The Potency was “inactive”.

Question: With CCC(=O)N1c2ccccc2CC1C(=O)NCCc1ccc(Cl)cc1 (centres undefined) as the compound, how does the Potency read?
Answer: Its Potency is inconclusive: 29.1 µM [cytotoxic, single point].

Question: Which Potency does the source give for CCOCCCNC(=O)C(NC(=O)c1ccc2c(c1)OCO2)c1ccccc1 (centres undefined) here?
Answer: Its Potency is inconclusive: 10.3 µM [cytotoxic, partial curve].

Question: Which Potency does the source give for COc1ccc(NCC(=O)N2CCCC2)cc1Cl here?
Answer: The Potency was “inactive”.

Question: Which Potency does the source give for Cc1ccc(C(=O)Nc2cccc(C(F)(F)F)c2)cc1NC(=O)c1cnnc2ccccc12 here?
Answer: The Potency was inconclusive: 18.4 µM [rising, single point].

Question: With Cc1ccccc1OCC(O)CN1CCN(C)CC1 (centres undefined) as the compound, how does the Potency read?
Answer: Its Potency is “inactive”.

Question: With CCOC(=O)c1oc2ccc(S(=O)(=O)n3nc(-c4ccccc4)cc3N)cc2c1C as the compound, how does the Potency read?
Answer: Its Potency is inconclusive: 23.1 µM [cytotoxic, single point].

Question: For CCOC(=O)C1(CCC(C)C)CC(CSc2nc3ccccc3[nH]2)OC1=O (centres undefined), which Potency is on record?
Answer: The Potency was inconclusive: 20.6 µM [cytotoxic, single point].

Question: With COc1ccc(NC(=O)c2cncc(Br)c2)c(S(=O)(=O)N2CCOCC2)c1 as the compound, how does the Potency read?
Answer: Its Potency is “inactive”.

Question: Which Potency does the source give for O=C(CN1CCN(c2ccccc2)CC1)Nc1ccc(OCc2ccccc2)cc1 here?
Answer: The Potency was inconclusive: 10.3 µM [cytotoxic, partial curve].

Question: Which Potency does the source give for Cc1cc(C)nc(N2CCC(C(=O)N3CCN(c4cc(Cl)ccc4C)CC3)CC2)n1 here?
Answer: The Potency was active: 4.11 µM.

Question: For Cc1ccc(C)c(C(=O)CSc2nc3cc(C(=O)NC4CCCC4)ccc3c(=O)n2CC2CCCO2)c1 (centres undefined), which Potency is on record?
Answer: Its Potency is inconclusive: 32.6 µM [cytotoxic, partial curve, poor fit].

Question: With COc1ccc(-c2cc(C(=O)OCC(=O)c3ccc(C)c([N+](=O)[O-])c3)c3ccccc3n2)cc1 as the compound, how does the Potency read?
Answer: The Potency was “inactive”.

Question: For Cc1ccc(CN2C(=O)C(F)(F)Oc3ccc(C)cc32)cc1, which Potency is on record?
Answer: The Potency was “inactive”.

Question: For COc1ccc(CCNC(=O)/C=C/c2ccco2)cc1, which Potency is on record?
Answer: Its Potency is inconclusive: 0.731 µM [rising, full curve, poor fit].

Question: For CCc1ccc(/C=C2\C(=N)N3N=C(CC(=O)N4CCCCC4)SC3=NC2=O)cc1, which Potency is on record?
Answer: Its Potency is inconclusive: 1.16 µM [rising, full curve, poor fit].

Question: For Cc1ccc2[nH]c(=O)c(C(c3nnnn3Cc3ccccc3)N3CCc4ccccc43)cc2c1 (centres undefined), which Potency is on record?
Answer: The Potency was inconclusive: 23.1 µM [cytotoxic, single point].

Question: Which Potency does the source give for CC1CCN(S(=O)(=O)c2cn(CC(=O)Nc3ccc(F)cc3)c(=O)c3ccccc23)CC1 here?
Answer: The Potency was “inactive”.

Question: With Cc1cc(N2CCN(c3ccccc3)CC2)n2ncnc2n1 as the compound, how does the Potency read?
Answer: The Potency was inconclusive: 14.6 µM [cytotoxic, partial curve].

Question: With Nc1ccc(CN2CCOCC2)cc1 as the compound, how does the Potency read?
Answer: The Potency was inconclusive: 29.1 µM [rising, single point].

Question: Which Potency does the source give for CCCCOC(=O)Nc1ccc(N2CCOCC2)cc1 here?
Answer: The Potency was “inactive”.

Question: With COc1cccc(C(=O)N(Cc2cc3cc(C)ccc3[nH]c2=O)C(C)C)c1 as the compound, how does the Potency read?
Answer: Its Potency is “inactive”.

Question: With COc1ccccc1OCCNC(=O)c1cccc(S(=O)(=O)N2CCN(Cc3ccccc3)CC2)c1 as the compound, how does the Potency read?
Answer: The Potency was “inactive”.

Question: With COc1ccc(C(=O)Nc2ccc3[nH]ccc3c2)cc1 as the compound, how does the Potency read?
Answer: The Potency was active: 16.4 µM.

Question: Which Potency does the source give for CCc1cccc(CC)c1NC(=O)COC(=O)C1(C)CC1(Cl)Cl (centres undefined) here?
Answer: Its Potency is inconclusive: 0.0058 µM [cytotoxic, full curve, poor fit].

Question: For COc1cccc(CC(=O)OCC(=O)NC(C)c2ccc(F)cc2)c1 (centres undefined), which activity change, negative = cytotoxicity is on record?
Answer: Its activity change, negative = cytotoxicity is inconclusive: 21.6%.

Question: Which Potency does the source give for COc1ccc(NC(=O)N(CCN2CCCC2)Cc2cc3cc(OC)c(OC)cc3[nH]c2=O)cc1 here?
Answer: The Potency was inconclusive: 20.6 µM [rising, partial curve, poor fit].

Question: Which Potency does the source give for Cc1c(Nc2scc(-c3ccccc3)[n+]2-c2ccccc2)c(=O)n(-c2ccccc2)n1C here?
Answer: The Potency was inconclusive: 8.2 µM [cytotoxic, partial curve].

Question: For CC(=O)Oc1ccc(/C=C2/SC(=S)N(Cc3ccccc3)C2=O)cc1, which Potency is on record?
Answer: The Potency was “inactive”.

Question: With O=C1NC(Cc2ccccc2)C(=O)N1Cc1cc([N+](=O)[O-])cc2c1OCOC2 (centres undefined) as the compound, how does the Potency read?
Answer: The Potency was inconclusive: 18.4 µM [cytotoxic, single point].

Question: For Cn1c(=O)c2c(nc(N3CCN(c4ccccn4)CC3)n2Cc2ccc(Cl)cc2Cl)n(C)c1=O, which Potency is on record?
Answer: The Potency was active: 0.651 µM.

Question: For CCOc1ccc(S(=O)(=O)N2CCN(c3ccc(C)cc3C)CC2)c2ccccc12, which Potency is on record?
Answer: Its Potency is inconclusive: 16.4 µM [cytotoxic, single point].

Question: For O=C1[C@@H]2[C@@H](CN3CN(c4ccccc4)N=C(c4ccccc4)[C@@]23c2ccccc2)C(=O)N1c1ccccc1, which Potency is on record?
Answer: The Potency was “inactive”.

Question: With CSc1nn(Cc2ccc(F)cc2)c(N)c1S(=O)(=O)c1ccc(Cl)cc1 as the compound, how does the Potency read?
Answer: Its Potency is inconclusive: 29.1 µM [cytotoxic, single point].

Question: For O=C(NCCCc1ccccc1)c1cnc2n(c1=O)CCS2, which Potency is on record?
Answer: Its Potency is active: 14.6 µM.

Question: Which Potency does the source give for Cn1c(COc2ccccc2)nc2ccccc21 here?
Answer: The Potency was inconclusive: 3.26 µM [rising, full curve].

Question: For COC(=O)CC1(C(=O)OC)Oc2ccc(Br)cc2C(=O)N1c1cc(Cl)c(Cl)cc1Cl (centres undefined), which Potency is on record?
Answer: The Potency was active: 10.3 µM.

Question: Which Potency does the source give for O=C1COc2ccc(-c3cc(-c4ccc(F)cc4)c4c(n3)-c3ccccc3OC4)cc2N1 here?
Answer: Its Potency is inconclusive: 29.1 µM [rising, single point].

Question: Which Potency does the source give for CCCn1nnnc1NC(=O)COc1ccc(Cl)cc1C here?
Answer: The Potency was inconclusive: 8.2 µM [cytotoxic, partial curve].

Question: Which Potency does the source give for Cc1ccc(C(=O)c2cc([N+](=O)[O-])ccc2N2CCN(C)CC2)cc1 here?
Answer: The Potency was active: 3.66 µM.

Question: Which Potency does the source give for O=C(c1ccc(N2CCN(C3CC(=O)N(Cc4cccs4)C3=O)CC2)cc1)c1cccnc1 (centres undefined) here?
Answer: Its Potency is “inactive”.

Question: With Nc1cccc(Nc2nc(OC(C(F)(F)F)C(F)(F)F)nc(OC(C(F)(F)F)C(F)(F)F)n2)c1 as the compound, how does the Potency read?
Answer: Its Potency is active: 23.1 µM.

Question: For COc1ccc(CCNS(=O)(=O)c2c(C)[nH]c(C)c2C(=O)N2CCCCC2)cc1OC, which Potency is on record?
Answer: The Potency was inconclusive: 14.6 µM [rising, single point].

Question: Which Potency does the source give for COCCOC(=O)c1c(NC(=O)CNC2CCCc3ccccc32)sc(C(N)=O)c1C (centres undefined) here?
Answer: Its Potency is inconclusive: 3.26 µM [cytotoxic, full curve].

Question: With Cc1cc(C)c(C#N)c(SCC(=O)Nc2cccc(S(=O)(=O)N3CCCC3)c2)n1 as the compound, how does the Potency read?
Answer: Its Potency is inconclusive: 5.17 µM [cytotoxic, full curve].

Question: For O=C(O)c1ccccc1N/N=C/c1c(Sc2nnnn2-c2ccccc2)nc2ccccn2c1=O, which Potency is on record?
Answer: Its Potency is inconclusive: 29.1 µM [rising, single point].

Question: For Cc1ccc(C(=O)N/C(=C/c2cccnc2)C(=O)N2CCCCCC2)cc1, which Potency is on record?
Answer: The Potency was inconclusive: 29.1 µM [cytotoxic, single point].

Question: Which Potency does the source give for COc1ccc(/C=C(\NC(=O)c2ccc(OC)cc2)C(=O)Nc2ccc(C(=O)O)cc2)cc1 here?
Answer: The Potency was “inactive”.

Question: Which Potency does the source give for Cn1cc(/C=C(\NC(=O)c2ccccc2)C(=O)NCCCN2CCOCC2)c2ccccc21 here?
Answer: Its Potency is “inactive”.

Question: Which Potency does the source give for COc1ccc(NC(=O)CN(C)S(=O)(=O)c2cccc3cccnc23)cc1 here?
Answer: Its Potency is inconclusive: 18.4 µM [cytotoxic, partial curve].

Question: Which Potency does the source give for COCC(=O)NC1CCN(C(=O)NCc2ccccc2)CC1 here?
Answer: The Potency was inconclusive: 29.1 µM [rising, single point].

Question: Which Potency does the source give for C#CCN(C[C@@H]1[C@@H](OC(=O)NCc2ccccc2F)[C@@H](OC(=O)NCc2ccccc2F)CN(C(=O)OC(C)C)N1C(=O)OC(C)C)S(=O)(=O)c1ccc(C)cc1 here?
Answer: The Potency was “inactive”.

Question: For O=c1[nH]c(C2CCN(S(=O)(=O)Cc3ccccc3)CC2)nc2c1nnn2Cc1ccccc1, which Potency is on record?
Answer: The Potency was “inactive”.

Question: Which Potency does the source give for C/C(=N\NC(=O)c1ccc(Cn2cc(Br)cn2)o1)c1ccc(NC(=O)c2ccoc2C)cc1 here?
Answer: The Potency was inconclusive: 23.1 µM [cytotoxic, single point].

Question: For C/C(=N\NC(=O)c1ccccc1F)c1cccc(NC(=O)c2ccccc2)c1, which Potency is on record?
Answer: The Potency was inconclusive: 4.61 µM [cytotoxic, full curve, poor fit].

Question: For CCc1cc2c(NCC3CCCO3)ncnc2s1 (centres undefined), which Potency is on record?
Answer: The Potency was active: 16.4 µM.

Question: For CC1CN(CC(O)COc2ccc(C#N)cc2)CCN1CC(O)COc1ccc(C#N)cc1 (centres undefined), which Potency is on record?
Answer: Its Potency is inconclusive: 20.6 µM [cytotoxic, single point].
